Assay results

Data taken from PubChem BioAssay AID912, deposited by NCATS (2007).

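Uptake of anthrax lethal toxin into cultured cells, read by FRET (460/530 nm ratio) and reported from the 460 nm channel; the cell line is not named here.
Each compound was tested as a concentration series from about 0.0005 to 40 µM.
The number is the fitted AC50 of the 460 nm signal alone; lower values mean a more potent effect. A falling signal goes with compounds filed as inhibitors or cytotoxic, a rising one with activators or fluorescent compounds (inferred from the filed classes).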

Values are in µM.
Common to all entries: measured here: 460 nm channel.
This is a side read-out of the assay, for part of the compounds, not drawn at random.
A potency from a partial, single-point or poor curve is only a rough figure.
The first word of each remark tells which way the curve ran; it can be opposite to the aim of the assay.

| Compound | AC50 (µM) | curve |
|---|---|---|
| `COC(=O)NCc1cc2cc(Cl)ccc2[nH]1` | 31.62 | falling, single point |
| `CC1CCc2cc(F)ccc2N1C(=O)CN1C(=O)c2ccccc2C1=O` (stereo unspecified) | 5.012 | rising, single point |
| `Cc1[nH]c2ccccc2c1NC(=O)CN1CCN(c2cccc(C(F)(F)F)c2)CC1` | 5.012 | rising, single point |
| `Cc1ccc(S(=O)(=O)Cn2nnnc2C(C(C)C)N2CCSCC2)cc1` (stereo unspecified) | 5.012 | rising, single point |
| `CCOc1ccc(N(CC(=O)Nc2ccc(C)cc2)S(=O)(=O)c2c(C)noc2C)cc1` | 12.59 | falling, single point |
| `C[C@@H](C(=O)NCc1cccc2ccccc12)[C@H]1C[C@]1(C)[C@H](NC(=O)OCc1ccccc1)c1ccccc1` | 0.5012 | falling, partial curve, poor fit |
| `CCC1Oc2ccc(C)cc2N(CC(=O)NCc2cccc(OC)c2)C1=O` (stereo unspecified) | 0.7943 | falling, full curve |
| `O=C(Nc1ccncc1)Nc1ccc(F)cc1F` | 0.01585 | rising, full curve, poor fit |
| `CCOC(=O)c1sc(C)c2c1NC(C)(c1cccs1)NC2=O` (stereo unspecified) | 31.62 | falling, single point |
| `CCn1cc(C(=O)N2CCCCC2)c(=O)c2cc(S(=O)(=O)N3CCC(C)CC3)ccc21` | 12.59 | rising, partial curve |
| `N#Cc1c(N)nc(N2CCCC2)c(C#N)c1-c1ccc(Cl)cc1` | 1.585 | falling, full curve |
| `Cc1onc(-c2c(F)cccc2Cl)c1C(=O)Nc1cccc(Cn2cccn2)c1` | 12.59 | rising, partial curve, poor fit |
| `O=C(O)CN1C(=O)O[C@@H](c2ccccc2)C1=O` | 0.1 | falling, partial curve |
| `CN(Cc1ccccc1)c1oc(COc2ccccc2F)nc1C#N` | 10 | falling, partial curve |
| `Cn1c(=O)oc2cc(S(=O)(=O)N3CCC(C(=O)N4CC=C(c5ccccc5)CC4)CC3)ccc21` | 5.012 | falling, partial curve |
| `COc1c(C)cc(Br)cc1C(=O)Nc1cccc(NC(=O)c2ccco2)c1` | 12.59 | falling, partial curve |
| `O=C(O)CN(c1ccc2c(c1)OCCO2)S(=O)(=O)c1ccccc1` | 19.95 | rising, single point |
| `CCN(CC)C(=O)c1sc2nc(-c3ccccn3)[nH]c(=O)c2c1C` | 10 | rising, single point |
| `O=C(Nc1ccc(Cl)cc1F)c1ccc(COc2c(F)c(F)c(F)c(F)c2F)o1` | 5.012 | falling, partial curve |
| `O=C(Nc1ccc2c(c1)oc1ccccc12)c1ccc(Br)o1` | 5.012 | falling, partial curve |
| `COc1ccc2[nH]cc(CCNc3ccnc(-c4ccccc4C)n3)c2c1` | 31.62 | falling, single point |
| `COc1cccc(-c2ccc3ncnc(NC4CC4)c3c2)c1` | 10 | rising, partial curve |
| `COc1cccc(N2C(=O)N(c3ccccc3Cl)C3CS(=O)(=O)CC32)c1` (stereo unspecified) | 2.512 | rising, partial curve |
| `O=C(COc1ccc(S(=O)(=O)N2CCOCC2)cc1)Nc1ccc2c(c1)OCCO2` | 0.01585 | rising, full curve, poor fit |
| `Cc1ccc(C=Nc2ccc(N(C)C)cc2)o1` | 12.59 | falling, single point |
| `CCn1c(N2CCN(CC(=O)Nc3cccc(C)c3C)CC2)nc2ccccc21` | 5.012 | rising, single point |
| `O=C(NCc1ccco1)c1c[nH]c2ccc(S(=O)(=O)N3CCOCC3)cc2c1=O` | 19.95 | rising, single point |
| `CN1CCN(C(c2cccnc2)c2ccc3cccnc3c2O)CC1` (stereo unspecified) | 19.95 | falling, single point |
| `O=c1c(-c2cccc(F)c2)nc2cncnc2n1C1CC1` | 31.62 | falling, single point |
| `COc1ccc(C2CC(=O)C3=C(C2)Nc2ncnn2C3c2ccccc2C)cc1` (stereo unspecified) | 10 | rising, partial curve |
| `ClC(Cl)(Cl)c1ccccc1` | 0.1585 | falling, full curve, poor fit |
| `O=C1NCN(c2ccccc2)C12CCN(CCCOc1ccc(F)cc1)CC2` | 12.59 | falling, partial curve |
| `Cc1cc(NO)nc(-c2ccc(Br)cc2)n1` | 10 | falling, partial curve |

For reference, 3 entries once more:

Compound	AC50 (µM)	curve
CCC1Oc2ccc(C)cc2N(CC(=O)NCc2cccc(OC)c2)C1=O (stereo unspecified)	0.7943	falling, full curve
COc1ccc(C2CC(=O)C3=C(C2)Nc2ncnn2C3c2ccccc2C)cc1 (stereo unspecified)	10	rising, partial curve
CCn1cc(C(=O)N2CCCCC2)c(=O)c2cc(S(=O)(=O)N3CCC(C)CC3)ccc21	12.59	rising, partial curve